This is one part of the list.
Each compound was assayed against Chromobox protein homolog 7 (Homo sapiens) (UniProt O95931) (assay: CBX7 chromodomain binding inhibitors, primary screen, biochemical, AlphaScreen (AID 1224903)). Details: AlphaScreen His6-CBX7 / biotin-H3K27me3 peptide binding; measured here: z-score of CBX7 signal; stronger effect = lower value.

By UniProt entry, the sequences of proteins in these tests, tags left out.
UniProt O95931, whole entry: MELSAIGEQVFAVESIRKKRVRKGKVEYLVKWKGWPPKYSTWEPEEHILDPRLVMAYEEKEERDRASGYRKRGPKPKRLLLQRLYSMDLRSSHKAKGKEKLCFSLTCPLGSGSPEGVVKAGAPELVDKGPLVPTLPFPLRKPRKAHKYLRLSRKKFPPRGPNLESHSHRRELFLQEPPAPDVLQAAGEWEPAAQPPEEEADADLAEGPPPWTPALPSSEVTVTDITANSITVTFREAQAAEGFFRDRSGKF

Compound | z-score
C1CN(c2nonc2-[n+]2nc3nonc3[n-]2)CCO1 | -2.42
O=C(OCCN1CCN(CCOCc2ccccc2)CC1)C(O)(c1ccccc1)c1ccccc1 | 0.902
C=CCN1CCN(CCOC(=O)C(O)(c2ccccc2)c2ccccc2)CC1 | 0.88

Reference: PubChem BioAssay AID1224903 (Bradner/Qi Labs at DFCI, 2016)
